According to PMC6751655:
No constants are given. Whether binding was seen depends on the method and setting. In cells and extracts the contact can be indirect. Some results given as binding are weak or reduced against the parent protein; the word gives no strength.

Chains of the proteins cited; added tags and fusions are not shown. Lines headed by an entry give the natural chain unless they say otherwise; changes in a name come on top.
UniProt P61960: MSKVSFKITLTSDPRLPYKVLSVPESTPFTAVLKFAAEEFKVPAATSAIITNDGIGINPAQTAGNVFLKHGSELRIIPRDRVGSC
UniProt O95863: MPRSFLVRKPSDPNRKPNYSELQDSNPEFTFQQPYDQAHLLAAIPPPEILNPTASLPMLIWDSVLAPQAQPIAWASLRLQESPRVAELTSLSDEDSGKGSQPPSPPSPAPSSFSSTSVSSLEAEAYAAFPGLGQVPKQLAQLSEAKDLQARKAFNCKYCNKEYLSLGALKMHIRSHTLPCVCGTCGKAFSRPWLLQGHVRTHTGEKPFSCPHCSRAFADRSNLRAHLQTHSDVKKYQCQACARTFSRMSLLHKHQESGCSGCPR

Assays:
[1] = target: T1, Protein 3-phosphoinositide-dependent protein kinase-1 (human (endogenous in AGS)) (UniProt O15530); assay: co-IP; immunoprecipitation with PDK1 antibody from AGS cell lysates, overnight at 4 °C; Protein A-Sepharose beads; Western blot
T1 sequence: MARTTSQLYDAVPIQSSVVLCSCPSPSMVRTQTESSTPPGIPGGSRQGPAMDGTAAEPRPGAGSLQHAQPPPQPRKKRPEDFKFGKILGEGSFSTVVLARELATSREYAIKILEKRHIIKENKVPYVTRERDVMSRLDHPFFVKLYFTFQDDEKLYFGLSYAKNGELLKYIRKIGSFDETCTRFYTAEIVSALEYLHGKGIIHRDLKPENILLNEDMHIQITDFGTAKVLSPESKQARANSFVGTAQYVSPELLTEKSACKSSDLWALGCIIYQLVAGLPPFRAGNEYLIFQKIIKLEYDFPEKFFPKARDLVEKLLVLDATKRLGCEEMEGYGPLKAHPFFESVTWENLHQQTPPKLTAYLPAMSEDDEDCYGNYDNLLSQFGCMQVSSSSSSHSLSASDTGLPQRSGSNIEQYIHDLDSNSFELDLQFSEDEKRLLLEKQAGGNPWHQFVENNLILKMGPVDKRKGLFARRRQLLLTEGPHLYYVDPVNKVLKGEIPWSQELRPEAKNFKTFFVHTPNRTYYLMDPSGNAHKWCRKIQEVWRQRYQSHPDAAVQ

[2] = target: Ubiquitin-fold modifier 1 (human (endogenous in AGS)) (UniProt P61960); assay: co-IP; immunoprecipitation with UFM1 antibody from lysates of AGS cells (Figure S4A) or stable AGS cells (Fig. 5a, down panel), overnight at 4 °C; Protein A-Sepharose beads; Western blot
[3] = target: UFM1 in stable AGS cells (human (AGS cells; species of the lentiviral cDNA not stated)) (UniProt P61960); assay: as above

Ubiquitin-fold modifier 1 (from UniProt P61960-1 1-85)
binding [1]: binds

Snail (from UniProt O95863 1-264)
binding [2]: no binding

B1: Protein 3-phosphoinositide-dependent protein kinase-1 (protein, UniProt O15530 1-556)
chain: T1 sequence
binding [3]: binds
